Reference: the supplement of paper PMC7666118
Some of the results follow.

Protein sequences, listed by entry. Tags and fused reporters are not part of them. Lines headed by an entry give the natural chain unless they say otherwise; changes in a name come on top.
UniProt P48163: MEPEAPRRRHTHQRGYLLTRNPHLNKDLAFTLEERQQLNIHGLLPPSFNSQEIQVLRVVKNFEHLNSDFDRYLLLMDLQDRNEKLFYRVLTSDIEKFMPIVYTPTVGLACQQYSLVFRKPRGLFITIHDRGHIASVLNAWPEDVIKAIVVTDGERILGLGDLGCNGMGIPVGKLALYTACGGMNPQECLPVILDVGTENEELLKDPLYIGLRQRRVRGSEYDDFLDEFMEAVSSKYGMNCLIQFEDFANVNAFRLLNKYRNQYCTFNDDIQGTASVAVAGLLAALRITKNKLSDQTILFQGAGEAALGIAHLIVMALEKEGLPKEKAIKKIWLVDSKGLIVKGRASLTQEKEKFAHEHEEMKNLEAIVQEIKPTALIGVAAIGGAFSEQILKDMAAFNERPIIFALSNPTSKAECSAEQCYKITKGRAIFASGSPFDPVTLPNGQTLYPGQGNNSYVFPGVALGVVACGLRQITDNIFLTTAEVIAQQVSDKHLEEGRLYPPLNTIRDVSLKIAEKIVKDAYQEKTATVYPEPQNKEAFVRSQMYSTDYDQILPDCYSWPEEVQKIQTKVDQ
UniProt Q9BTT4: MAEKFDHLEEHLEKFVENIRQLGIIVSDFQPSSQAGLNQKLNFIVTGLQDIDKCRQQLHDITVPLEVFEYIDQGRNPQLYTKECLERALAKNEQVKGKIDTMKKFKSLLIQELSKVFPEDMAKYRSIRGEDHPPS
UniProt Q14703: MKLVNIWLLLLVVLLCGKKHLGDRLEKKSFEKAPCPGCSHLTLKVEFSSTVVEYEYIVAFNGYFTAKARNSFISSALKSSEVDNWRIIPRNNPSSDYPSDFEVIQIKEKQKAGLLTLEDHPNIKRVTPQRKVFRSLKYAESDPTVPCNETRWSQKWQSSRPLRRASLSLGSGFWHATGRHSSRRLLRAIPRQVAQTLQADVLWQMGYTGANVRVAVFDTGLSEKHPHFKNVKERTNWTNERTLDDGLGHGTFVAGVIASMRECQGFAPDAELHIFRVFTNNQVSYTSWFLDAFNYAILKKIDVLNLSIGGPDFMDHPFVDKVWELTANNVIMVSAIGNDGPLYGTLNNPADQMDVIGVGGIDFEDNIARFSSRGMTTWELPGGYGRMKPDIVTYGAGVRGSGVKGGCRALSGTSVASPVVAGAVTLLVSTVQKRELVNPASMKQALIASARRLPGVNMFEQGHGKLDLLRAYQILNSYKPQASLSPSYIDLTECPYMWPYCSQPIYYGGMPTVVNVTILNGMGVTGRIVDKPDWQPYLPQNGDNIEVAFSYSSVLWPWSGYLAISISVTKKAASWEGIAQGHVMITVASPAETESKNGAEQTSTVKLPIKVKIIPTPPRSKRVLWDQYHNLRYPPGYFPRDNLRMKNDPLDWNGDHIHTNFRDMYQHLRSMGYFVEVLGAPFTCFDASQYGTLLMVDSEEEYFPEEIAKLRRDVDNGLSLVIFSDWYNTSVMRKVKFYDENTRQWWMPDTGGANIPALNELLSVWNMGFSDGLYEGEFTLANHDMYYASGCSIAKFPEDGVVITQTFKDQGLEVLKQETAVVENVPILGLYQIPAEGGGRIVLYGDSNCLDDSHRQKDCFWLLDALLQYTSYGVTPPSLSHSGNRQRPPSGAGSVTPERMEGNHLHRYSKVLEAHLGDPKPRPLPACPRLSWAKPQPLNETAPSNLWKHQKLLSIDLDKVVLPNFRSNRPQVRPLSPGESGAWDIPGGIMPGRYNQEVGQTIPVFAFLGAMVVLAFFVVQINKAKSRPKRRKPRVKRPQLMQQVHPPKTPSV
UniProt Q14696: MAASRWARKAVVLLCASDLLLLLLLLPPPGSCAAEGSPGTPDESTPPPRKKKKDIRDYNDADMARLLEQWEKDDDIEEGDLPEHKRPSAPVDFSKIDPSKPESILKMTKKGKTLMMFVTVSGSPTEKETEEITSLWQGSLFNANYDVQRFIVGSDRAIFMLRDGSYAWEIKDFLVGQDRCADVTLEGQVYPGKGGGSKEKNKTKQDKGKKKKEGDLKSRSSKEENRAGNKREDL
UniProt Q9UH92: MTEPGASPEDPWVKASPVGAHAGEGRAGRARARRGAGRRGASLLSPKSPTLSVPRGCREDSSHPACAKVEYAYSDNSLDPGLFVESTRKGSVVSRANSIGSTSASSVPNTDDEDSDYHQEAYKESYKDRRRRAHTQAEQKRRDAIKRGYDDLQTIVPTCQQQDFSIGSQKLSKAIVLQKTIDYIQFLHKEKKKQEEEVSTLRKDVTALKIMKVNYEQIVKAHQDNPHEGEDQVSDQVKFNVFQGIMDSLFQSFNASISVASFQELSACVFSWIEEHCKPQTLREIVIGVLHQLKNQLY
UniProt P33993, whole entry: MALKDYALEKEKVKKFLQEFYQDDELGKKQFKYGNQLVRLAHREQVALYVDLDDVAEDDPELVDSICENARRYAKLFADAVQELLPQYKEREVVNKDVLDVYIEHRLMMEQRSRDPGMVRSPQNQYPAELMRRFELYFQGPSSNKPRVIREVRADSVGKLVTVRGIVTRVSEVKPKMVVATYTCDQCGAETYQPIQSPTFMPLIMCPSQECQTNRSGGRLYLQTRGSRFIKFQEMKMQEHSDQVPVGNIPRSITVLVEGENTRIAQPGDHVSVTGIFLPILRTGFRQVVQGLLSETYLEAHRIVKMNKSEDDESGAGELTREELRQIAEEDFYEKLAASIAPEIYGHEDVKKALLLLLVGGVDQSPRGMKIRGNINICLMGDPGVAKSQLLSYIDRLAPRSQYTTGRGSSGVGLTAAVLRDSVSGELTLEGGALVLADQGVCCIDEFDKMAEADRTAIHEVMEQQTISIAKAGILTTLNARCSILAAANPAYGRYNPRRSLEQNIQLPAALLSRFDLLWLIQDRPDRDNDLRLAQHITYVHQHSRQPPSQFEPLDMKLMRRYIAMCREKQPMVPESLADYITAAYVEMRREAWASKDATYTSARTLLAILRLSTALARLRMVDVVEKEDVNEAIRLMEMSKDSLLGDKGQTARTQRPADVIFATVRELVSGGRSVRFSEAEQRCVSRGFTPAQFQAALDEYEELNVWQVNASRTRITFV
UniProt P10620: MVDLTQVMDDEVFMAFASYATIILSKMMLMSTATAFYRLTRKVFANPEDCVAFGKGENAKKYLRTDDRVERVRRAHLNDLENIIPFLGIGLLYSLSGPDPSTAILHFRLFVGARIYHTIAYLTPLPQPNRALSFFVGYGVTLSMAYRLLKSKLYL
UniProt Q8N4V1: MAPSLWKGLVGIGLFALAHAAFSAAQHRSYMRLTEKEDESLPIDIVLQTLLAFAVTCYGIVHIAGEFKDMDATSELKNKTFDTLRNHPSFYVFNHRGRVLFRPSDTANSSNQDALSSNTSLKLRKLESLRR
UniProt Q9Y2E5: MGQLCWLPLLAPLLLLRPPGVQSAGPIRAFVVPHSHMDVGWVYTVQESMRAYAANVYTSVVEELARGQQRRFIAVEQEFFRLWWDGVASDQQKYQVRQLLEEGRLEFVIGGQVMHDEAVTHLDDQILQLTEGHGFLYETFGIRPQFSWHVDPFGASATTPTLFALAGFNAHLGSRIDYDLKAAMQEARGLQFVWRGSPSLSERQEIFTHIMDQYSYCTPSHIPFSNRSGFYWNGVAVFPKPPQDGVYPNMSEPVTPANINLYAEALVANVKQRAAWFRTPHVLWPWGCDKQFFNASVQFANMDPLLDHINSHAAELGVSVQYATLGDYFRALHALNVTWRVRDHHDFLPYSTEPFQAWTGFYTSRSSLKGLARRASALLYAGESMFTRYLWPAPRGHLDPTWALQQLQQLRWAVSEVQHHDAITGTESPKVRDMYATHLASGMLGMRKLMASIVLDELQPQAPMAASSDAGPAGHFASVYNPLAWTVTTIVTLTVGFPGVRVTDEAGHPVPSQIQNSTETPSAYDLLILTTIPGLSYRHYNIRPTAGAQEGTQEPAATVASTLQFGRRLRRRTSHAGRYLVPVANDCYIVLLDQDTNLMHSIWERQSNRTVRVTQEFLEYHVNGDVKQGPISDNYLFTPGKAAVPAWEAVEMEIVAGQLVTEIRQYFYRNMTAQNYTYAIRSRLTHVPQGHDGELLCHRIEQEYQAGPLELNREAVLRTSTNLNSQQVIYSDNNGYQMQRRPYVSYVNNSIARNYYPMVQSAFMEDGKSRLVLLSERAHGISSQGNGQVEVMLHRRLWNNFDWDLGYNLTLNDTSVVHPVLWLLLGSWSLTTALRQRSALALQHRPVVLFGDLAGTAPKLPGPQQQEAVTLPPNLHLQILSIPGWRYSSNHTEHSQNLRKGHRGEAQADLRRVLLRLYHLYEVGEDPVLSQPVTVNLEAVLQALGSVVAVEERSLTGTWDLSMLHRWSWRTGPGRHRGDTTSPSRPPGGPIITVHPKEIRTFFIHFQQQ
UniProt Q12851: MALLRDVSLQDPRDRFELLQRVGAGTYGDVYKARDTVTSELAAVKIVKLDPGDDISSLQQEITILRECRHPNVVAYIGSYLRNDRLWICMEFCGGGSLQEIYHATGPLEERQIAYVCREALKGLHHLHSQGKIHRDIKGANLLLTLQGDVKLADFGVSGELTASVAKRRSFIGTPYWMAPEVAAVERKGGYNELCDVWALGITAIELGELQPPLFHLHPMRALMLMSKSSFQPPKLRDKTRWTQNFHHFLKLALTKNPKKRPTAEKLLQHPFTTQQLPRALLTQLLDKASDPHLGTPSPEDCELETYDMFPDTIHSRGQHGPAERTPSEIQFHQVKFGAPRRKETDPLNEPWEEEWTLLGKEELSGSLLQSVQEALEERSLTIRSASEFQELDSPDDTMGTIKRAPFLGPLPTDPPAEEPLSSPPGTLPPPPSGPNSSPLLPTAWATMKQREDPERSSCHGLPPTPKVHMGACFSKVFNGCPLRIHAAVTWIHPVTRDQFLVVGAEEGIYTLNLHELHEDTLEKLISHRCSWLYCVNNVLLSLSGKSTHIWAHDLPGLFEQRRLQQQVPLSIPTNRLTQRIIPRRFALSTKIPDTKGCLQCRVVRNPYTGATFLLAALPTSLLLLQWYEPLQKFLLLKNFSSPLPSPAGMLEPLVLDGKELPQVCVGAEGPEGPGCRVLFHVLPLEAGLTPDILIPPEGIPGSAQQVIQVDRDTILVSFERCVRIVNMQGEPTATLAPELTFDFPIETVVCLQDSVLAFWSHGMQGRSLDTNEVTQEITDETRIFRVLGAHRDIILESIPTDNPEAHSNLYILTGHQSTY
UniProt Q14566: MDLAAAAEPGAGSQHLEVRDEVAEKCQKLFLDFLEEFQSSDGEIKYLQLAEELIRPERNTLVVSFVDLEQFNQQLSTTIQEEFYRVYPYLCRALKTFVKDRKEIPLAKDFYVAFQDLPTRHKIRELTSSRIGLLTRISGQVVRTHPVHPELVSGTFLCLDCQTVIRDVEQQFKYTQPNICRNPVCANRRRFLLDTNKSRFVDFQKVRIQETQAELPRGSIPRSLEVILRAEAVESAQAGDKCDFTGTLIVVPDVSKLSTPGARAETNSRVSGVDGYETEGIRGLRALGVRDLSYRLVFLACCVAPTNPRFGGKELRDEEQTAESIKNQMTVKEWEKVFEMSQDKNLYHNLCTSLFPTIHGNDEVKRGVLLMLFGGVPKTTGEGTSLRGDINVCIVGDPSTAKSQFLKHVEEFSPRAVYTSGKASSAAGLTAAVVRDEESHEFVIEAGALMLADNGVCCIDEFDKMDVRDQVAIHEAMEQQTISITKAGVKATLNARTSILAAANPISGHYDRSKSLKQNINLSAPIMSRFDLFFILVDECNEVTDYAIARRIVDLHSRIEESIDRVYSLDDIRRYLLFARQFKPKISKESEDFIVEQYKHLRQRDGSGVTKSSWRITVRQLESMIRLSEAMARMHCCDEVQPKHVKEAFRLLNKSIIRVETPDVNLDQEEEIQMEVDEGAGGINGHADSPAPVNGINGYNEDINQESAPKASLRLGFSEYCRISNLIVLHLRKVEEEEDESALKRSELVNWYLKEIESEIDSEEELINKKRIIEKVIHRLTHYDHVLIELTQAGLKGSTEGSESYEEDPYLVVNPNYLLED
UniProt Q99547: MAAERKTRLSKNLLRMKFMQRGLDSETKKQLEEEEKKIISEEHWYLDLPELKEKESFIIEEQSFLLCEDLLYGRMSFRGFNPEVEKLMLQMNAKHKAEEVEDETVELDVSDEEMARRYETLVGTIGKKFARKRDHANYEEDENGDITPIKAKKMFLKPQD
UniProt Q9H8H3: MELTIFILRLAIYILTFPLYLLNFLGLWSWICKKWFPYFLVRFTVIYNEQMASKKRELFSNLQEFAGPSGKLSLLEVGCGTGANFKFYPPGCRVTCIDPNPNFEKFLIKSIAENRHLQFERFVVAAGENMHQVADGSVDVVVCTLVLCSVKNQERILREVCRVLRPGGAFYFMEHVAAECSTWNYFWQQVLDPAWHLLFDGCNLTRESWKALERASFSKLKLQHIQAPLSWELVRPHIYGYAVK
UniProt Q8WV92, whole entry: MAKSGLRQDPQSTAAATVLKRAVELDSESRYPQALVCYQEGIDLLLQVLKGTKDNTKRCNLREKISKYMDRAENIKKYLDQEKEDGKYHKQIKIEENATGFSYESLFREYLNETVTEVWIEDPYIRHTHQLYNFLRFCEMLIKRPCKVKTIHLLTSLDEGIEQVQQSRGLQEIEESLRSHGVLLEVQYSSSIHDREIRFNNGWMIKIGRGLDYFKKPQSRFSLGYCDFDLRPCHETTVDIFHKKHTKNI

Compound: COc1ccc(Cn2ccc3ccc(C(=O)NO)cc32)cc1
Experiment: dose-dependent thermal stabilisation call (2D-TPP, DLPTP, 10% FDR) (binary (1 = stabilised)); higher = stabilised by the compound
Settings: system: HL-60 intact cells; concentration range 0.04-10 µM

**Q.** MAP3K7 (UniProt O43318) was tested. Which “dose-dependent thermal stabilisation call” value did it give?
**A.** Its value is inactive: 0.

**Q.** For MPI (UniProt P34949), which “dose-dependent thermal stabilisation call” value is on record?
**A.** The value was inactive: 0.

**Q.** MAP2K1 (UniProt Q02750) was tested. Which “dose-dependent thermal stabilisation call” value did it give?
**A.** Its value is inactive: 0.

**Q.** MBTD1 (UniProt Q05BQ5) was tested. Which “dose-dependent thermal stabilisation call” value did it give?
**A.** Its value is inactive: 0.

**Q.** With MAP7 (UniProt Q14244) as the target, how does the “dose-dependent thermal stabilisation call” value read?
**A.** The value was inactive: 0.

**Q.** Which “dose-dependent thermal stabilisation call” value does the source give for MED8 (UniProt Q96G25) here?
**A.** Its value is inactive: 0.

**Q.** How did the “dose-dependent thermal stabilisation call” value turn out when MAP1S (UniProt Q66K74) was run?
**A.** The value was inactive: 0.

**Q.** For MKRN1 (UniProt Q9UHC7), which “dose-dependent thermal stabilisation call” value is on record?
**A.** The value was inactive: 0.

**Q.** ME1 (UniProt P48163) was tested. Which “dose-dependent thermal stabilisation call” value did it give?
**A.** The value was inactive: 0.

**Q.** Which “dose-dependent thermal stabilisation call” value does the source give for MRPL11 (UniProt Q9Y3B7) here?
**A.** Its value is inactive: 0.

**Q.** With MED31 (UniProt Q9Y3C7) as the target, how does the “dose-dependent thermal stabilisation call” value read?
**A.** Its value is inactive: 0.

**Q.** For MAPRE1 (UniProt Q15691), which “dose-dependent thermal stabilisation call” value is on record?
**A.** The value was inactive: 0.

**Q.** For MON1B (UniProt Q7L1V2), which “dose-dependent thermal stabilisation call” value is on record?
**A.** The value was inactive: 0.

**Q.** MED10 (UniProt Q9BTT4) was tested. Which “dose-dependent thermal stabilisation call” value did it give?
**A.** Its value is inactive: 0.

**Q.** How did the “dose-dependent thermal stabilisation call” value turn out when MBTPS1 (UniProt Q14703) was run?
**A.** The value was inactive: 0.

**Q.** MED12 (UniProt Q93074) was tested. Which “dose-dependent thermal stabilisation call” value did it give?
**A.** The value was inactive: 0.

**Q.** How did the “dose-dependent thermal stabilisation call” value turn out when MESDC2 (UniProt Q14696) was run?
**A.** The value was inactive: 0.

**Q.** With MAP1B (UniProt P46821) as the target, how does the “dose-dependent thermal stabilisation call” value read?
**A.** The value was inactive: 0.

**Q.** Which “dose-dependent thermal stabilisation call” value does the source give for MLX (UniProt Q9UH92) here?
**A.** The value was inactive: 0.

**Q.** Which “dose-dependent thermal stabilisation call” value does the source give for MCM7 (UniProt P33993) here?
**A.** The value was inactive: 0.

**Q.** Which “dose-dependent thermal stabilisation call” value does the source give for MGST1 (UniProt P10620) here?
**A.** The value was inactive: 0.

**Q.** How did the “dose-dependent thermal stabilisation call” value turn out when MMGT1 (UniProt Q8N4V1) was run?
**A.** Its value is inactive: 0.

**Q.** For MRPS15 (UniProt P82914), which “dose-dependent thermal stabilisation call” value is on record?
**A.** Its value is inactive: 0.

**Q.** Which “dose-dependent thermal stabilisation call” value does the source give for MAP7D3 (UniProt Q8IWC1) here?
**A.** The value was inactive: 0.

**Q.** With MIB1 (UniProt Q86YT6) as the target, how does the “dose-dependent thermal stabilisation call” value read?
**A.** The value was inactive: 0.

**Q.** For MAN2B2 (UniProt Q9Y2E5), which “dose-dependent thermal stabilisation call” value is on record?
**A.** The value was inactive: 0.

**Q.** MAP4K2 (UniProt Q12851) was tested. Which “dose-dependent thermal stabilisation call” value did it give?
**A.** Its value is inactive: 0.

**Q.** How did the “dose-dependent thermal stabilisation call” value turn out when METTL4 (UniProt Q8N3J2) was run?
**A.** Its value is inactive: 0.

**Q.** MCM6 (UniProt Q14566) was tested. Which “dose-dependent thermal stabilisation call” value did it give?
**A.** Its value is inactive: 0.

**Q.** Which “dose-dependent thermal stabilisation call” value does the source give for MRPS21 (UniProt P82921) here?
**A.** Its value is inactive: 0.

**Q.** For MRFAP1 (UniProt Q9Y605), which “dose-dependent thermal stabilisation call” value is on record?
**A.** Its value is inactive: 0.

**Q.** With MRPS34 (UniProt P82930) as the target, how does the “dose-dependent thermal stabilisation call” value read?
**A.** The value was inactive: 0.

**Q.** MKRN2 (UniProt Q9H000) was tested. Which “dose-dependent thermal stabilisation call” value did it give?
**A.** The value was inactive: 0.

**Q.** How did the “dose-dependent thermal stabilisation call” value turn out when MPHOSPH6 (UniProt Q99547) was run?
**A.** The value was inactive: 0.

**Q.** Which “dose-dependent thermal stabilisation call” value does the source give for MANEA (UniProt Q5SRI9) here?
**A.** The value was inactive: 0.

**Q.** With MRPL12 (UniProt P52815) as the target, how does the “dose-dependent thermal stabilisation call” value read?
**A.** Its value is active: 1.

**Q.** How did the “dose-dependent thermal stabilisation call” value turn out when METTL7A (UniProt Q9H8H3) was run?
**A.** Its value is inactive: 0.

**Q.** How did the “dose-dependent thermal stabilisation call” value turn out when MITD1 (UniProt Q8WV92) was run?
**A.** The value was inactive: 0.
